PubChem BioAssay AID493246 – Drosophila RNAi Screening Center, 2011
The screen tested about 21,000 reagents; this is a random part of those with a known target gene and a result. Of all reagents, 429 (2%) were called active. 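Values are raw and not normalised between plates; calls rest on per-plate z-scores that were not deposited.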 A number with no mark means an inactive call. The numbers tell different reagents against one gene apart. Names joined by + are all predicted targets of the reagent. The record does not give: the amount of reagent, the time to read-out.

- Purpose: 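Identify essential fly genes by loss of cell viability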 (primary screen)
- System: Drosophila Kc and S2R+ cells
- Reagent: long dsRNA against Drosophila genes
- Measurement: 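Raw, unnormalised count of remaining cells in each well; per-plate z-scores of cell number underlie the calls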
- Direction: Kc cell number and S2R+ cell number: higher = more cells remaining
- Active means: 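Active when the per-plate z-score of cell number is 3 or more in the direction of fewer cells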

target gene,reagent,"Kc cell number, rep 1","Kc cell number, rep 2","S2R+ cell number, rep 1","S2R+ cell number, rep 2"
CG34008 (GeneID 3885577),1,1.44e6,1.39e6,1.07e6,1.10e6
CG9743 (GeneID 43593),1,1.36e6,1.41e6,1.01e6,1.15e6
ND-ACP (GeneID 38154),1,1.31e6,1.21e6,8.88e5,1.06e6
CG12861 (GeneID 36628),1,1.54e6,1.53e6,1.19e6,1.30e6
Mcm5 (GeneID 41296),1,1.34e6,1.40e6,1.34e6,1.35e6
Scgalpha (GeneID 34135),1,1.52e6,1.62e6,1.32e6,1.42e6
CG13362 (GeneID 31018),1,1.56e6,1.59e6,9.96e5,1.08e6
CG13540 (GeneID 37686),1,1.65e6,1.62e6,1.27e6,1.43e6
RpL14 (GeneID 38983),1,8.88e5 (active),9.66e5,5.74e5,6.84e5
CG9483 (GeneID 34209),1,8.82e5,1.00e6,8.83e5,8.36e5
CG32512 (GeneID 33085),1,1.37e6,1.32e6,1.02e6,1.14e6
CG32512 (GeneID 33085),2,1.50e6,1.55e6,1.03e6,1.17e6
Apc (GeneID 44642),1,1.62e6,1.75e6,1.09e6,1.21e6
Tbc1d15-17 (GeneID 33184),1,1.29e6,1.34e6,9.77e5,9.74e5
Elovl7 (GeneID 40943),1,1.56e6,1.66e6,1.36e6,1.51e6
ETH (GeneID 44125),1,1.60e6,1.71e6,1.29e6,1.32e6
Rlb1 (GeneID 41139),1,1.50e6,1.44e6,1.24e6,1.30e6
Lamp1 (GeneID 35411),1,1.50e6,1.53e6,1.18e6,2.34e5
CG30495 (GeneID 246651),1,1.67e6,1.72e6,1.39e6,1.59e6
CG3491 (GeneID 34870),1,1.54e6,1.68e6,9.54e5,1.11e6
Nipped-A (GeneID 35483),1,1.54e6,1.60e6,1.06e6,1.17e6
Nipped-A (GeneID 35483),2,1.44e6,1.59e6,1.28e6,1.48e6
Nipped-A (GeneID 35483),3,1.49e6,1.48e6,1.11e6,1.19e6
Nipped-A (GeneID 35483),4,1.39e6,1.28e6,9.44e5,1.10e6
CG7386 (GeneID 38719),1,1.33e6,1.26e6,1.19e6,1.18e6
CG14200 (GeneID 32939),1,1.10e6 (active),1.14e6,5.52e5,6.53e5
Fmr1 (GeneID 37528),1,1.51e6,1.52e6,1.24e6,1.36e6
CG11113 (GeneID 35659),1,1.66e6,1.62e6,1.37e6,1.56e6
Irc (GeneID 42049),1,1.43e6,1.53e6,1.14e6,1.15e6
CG15322 (GeneID 33012),1,1.38e6,1.38e6,7.52e5,8.06e5
CG9162 (retired record) (GeneID 33860),1,1.25e6,1.37e6,6.58e5,9.98e5

3 entries already listed, arranged by “S2R+ cell number, rep 1”, highest first.
target gene,reagent,"Kc cell number, rep 1","Kc cell number, rep 2","S2R+ cell number, rep 1","S2R+ cell number, rep 2"
CG13540 (GeneID 37686),1,1.65e6,1.62e6,1.27e6,1.43e6
CG9483 (GeneID 34209),1,8.82e5,1.00e6,8.83e5,8.36e5
RpL14 (GeneID 38983),1,8.88e5 (active),9.66e5,5.74e5,6.84e5

The list goes on:
target gene,reagent,"Kc cell number, rep 1","Kc cell number, rep 2","S2R+ cell number, rep 1","S2R+ cell number, rep 2"
CG6330 (GeneID 43240),1,5.27e5,,8.26e5,
Fadd (GeneID 42594),1,1.32e6,1.30e6,1.00e6,1.18e6
CG14384 (GeneID 41588),1,1.51e6,1.39e6,1.05e6,1.14e6
Alp11 (GeneID 32496),1,1.46e6,1.47e6,1.07e6,1.13e6
CG42254 (retired record) (GeneID 36644),1,1.49e6,1.47e6,1.19e6,1.30e6
tim (GeneID 33571),1,1.33e6,1.38e6,8.85e5,8.49e5
eEF1alpha1 (GeneID 36271),1,1.55e6,1.63e6,1.07e6,1.20e6
CG13712 (GeneID 38574),1,1.62e6,1.58e6,1.04e6,1.18e6
Eig71Ec (GeneID 39703),1,1.25e6,1.51e6,1.30e6,1.41e6
Cyp4e3 (GeneID 34291),1,1.69e6,1.64e6,1.22e6,1.43e6
Cog2 (GeneID 41870),1,1.18e6,1.25e6,1.09e6,1.15e6
veli (GeneID 43003),1,1.79e6,1.68e6,1.06e6,1.21e6
Lcp65Ab2 + Lcp65Ab1,1,1.49e6,1.30e6,1.11e6,1.19e6
Lcp65Ab2 + Lcp65Ab1,2,1.32e6,1.40e6,1.08e6,1.19e6
beat-VI (GeneID 43377),1,1.45e6,1.49e6,9.91e5,1.11e6
beat-VI (GeneID 43377),2,1.41e6,1.47e6,9.71e5,1.08e6
ms(3)76Ba (GeneID 40109),1,1.45e6,1.50e6,1.36e6,1.37e6
CG4950 (GeneID 39783),1,1.58e6,1.82e6,1.51e6,1.68e6
Ugt37A1 (GeneID 35307),1,1.75e6,1.77e6,1.25e6,2.29e5
Men (GeneID 47173),1,1.61e6,1.75e6,1.12e6,1.28e6
Men (GeneID 47173),2,1.28e6,1.32e6,9.83e5,1.10e6
CR11386 + CR33222,1,1.39e6,1.41e6,1.02e6,1.12e6
dob (GeneID 32436),1,5.55e5,,7.74e5,
Or45b (GeneID 35980),1,1.71e6,1.75e6,1.37e6,1.51e6
RpL3 + CG6693,1,1.87e6,1.93e6,1.52e6,1.68e6
TRAM (GeneID 31042),1,1.55e6,1.53e6,1.07e6,1.18e6
TRAM (GeneID 31042),2,1.54e6,1.54e6,1.01e6,1.20e6
Ir94f (GeneID 318632),1,1.13e6,1.42e6,1.07e6,1.07e6
